Measured values reported in paper PMC12670160, “A drug-repurposing screen of FDA- and EMA-approved drugs identifies two NF-κB inhibitors active against eumycetoma” (Journal of Antimicrobial Chemotherapy, 2025).
Structures can show the parent of a compound that is named as a salt. Screen size: about 5,300 compounds; about 130 (2.5%) showed an effect of 50% or more. The list shows a part of the results.

System: M. mycetomatis strain mm55
Conditions: primary screen, metabolic activity vs growth control; 96 h, 2 µM; inhibitor

| SMILES | % viability [%] |
| --- | --- |
| COc1cc2c(NC3CCN(C)CC3)nc(N3CCCN(C)CC3)nc2cc1OCCOCCN(C)C [ONC0002054, unc0321] | 65.32 |
| COc1cccc2c1C(=O)c1c(O)c3c(c(O)c1C2=O)C[C@@](O)(/C(CO)=N/NC(=O)CCCCCN1C(=O)C=CC1=O)C[C@@H]3O[C@H]1C[C@H](N)[C@H](O)[C@H](C)O1 [ONC0000790, aldoxorubicin] | 93.96 |
| CCC(C)CNCC(=O)N1CCc2sccc2C1COc1cccc(C)c1 (stereo not drawn) [ONC0000211, ruski43] | 72.45 |
| CCNC(C)CN1CCc2c(c(=O)oc3ccccc23)C1 (stereo not drawn) [ONC0002199, ci923] | 99.06 |
| CN(C)CCN1C(=O)c2cccc3cc(N)cc(c23)C1=O [ONC0004718, amonafide] | 128.3 |
| CCOc1ccc(Cc2cc([C@@H]3O[C@H](CO)[C@@H](O)[C@H](O)[C@H]3O)ccc2Cl)cc1 [ONC0005314, dapagliflozin] | 78.54 |
| CCNC(=O)C#Cc1ccc2c(c1)NC(=O)/C2=C(/Nc1ccc(CN(C)C)cc1)c1ccccc1 [ONC0004535, bi847325] | 77.83 |
| Cc1cccc(Nc2nc(-c3ccncc3)cs2)c1 [ONC0004714, stf62247] | 102.8 |
| CN(C)CCC(c1ccccc1)c1ccccn1 (stereo not drawn) [ONC0000600, pheniramine maleate] | 93.48 |
| CC(C)CCC[C@@H](C)[C@H]1CC[C@H]2[C@@H]3CC=C4C[C@@H](O)CC[C@]4(C)[C@H]3CC[C@]12C [ONC0003909, cholesterol] | 75.66 |
| O=C(CN1CCN(Cc2ccc3c(c2)OCO3)CC1)N1c2ccccc2Sc2ccccc21 [ONC0003446, fenoverine] | 80.33 |
| CCCCc1nn(-c2ccccc2C(F)(F)F)c(=O)n1Cc1ccc(-c2ccccc2S(=O)(=O)NC(=O)c2sccc2C)cc1 [ONC0003621, l161982] | 69.37 |
| CCSc1ccc2c(c1)N(CCCN1CCN(C)CC1)c1ccccc1S2 [ONC0002904, thiethylperazine] | 105.9 |
| Cc1c(O)cccc1C(=O)N[C@@H](CSc1ccccc1)[C@H](O)CN1C[C@H]2CCCC[C@H]2C[C@H]1C(=O)NC(C)(C)C [ONC0003474, nelfinavir mesylate] | 57.61 |
| O=[N+]([O-])c1cc(Cl)ccc1S(=O)(=O)N1CCN(Cc2ccccc2)CC1 [ONC0001663, rn1747] | 65.37 |
| CCN(CC)C(=O)N1CCN(C)CC1 [ONC0000626, diethylcarbamazine citrate] | 119.6 |
| O=C(O)c1cc(O)c(O)c(O)c1 [ONC0003325, gallic acid] | 58.9 |
| CCCCC#Cc1nc(NC)c2ncn([C@@H]3O[C@H](CO)[C@@H](O)[C@H]3O)c2n1 [ONC0002716, hemado] | 66.82 |
| CCC(O)(CC(N)=O)c1ccccc1 (stereo not drawn) [ONC0003599, 3hydroxy3phenylpentanamide] | 105.2 |

| SMILES | % viability [%] |
| --- | --- |
| O=C(Nc1ccc2c(O)cc(S(=O)(=O)O)cc2c1)Nc1ccc2c(O)cc(S(=O)(=O)O)cc2c1 [ONC0003636, disodium 77carbonyldiiminobis4hydroxy2naphthalenesulfonate] | 82.53 |
| COc1ccc(-n2nc(CCC(=O)N(C)O)cc2-c2ccc(Cl)cc2)cc1 [ONC0002438, tepoxalin] | 104.2 |
| CCOc1nc2c(N)ncnc2n1CC [ONC0001622, anr94] | 89.68 |
| O=P(O)(O)C(O)(Cc1cccnc1)P(=O)(O)O [ONC0004012, risedronate sodium] | 69.35 |
| COc1cc2c(cc1OC)CN(CCc1ccc(NC(=O)c3cccc4c(=O)c5cccc(OC)c5[nH]c34)cc1)CC2 [ONC0001070, elacridar] | 58.72 |
| CC(=O)[C@H]1CC[C@H]2[C@@H]3CC=C4C[C@@H](OC(=O)CCC(=O)O)CC[C@]4(C)[C@H]3CC[C@]12C [ONC0004082, pregnenolone succinate] | 132.6 |
| CC(CCc1ccc(O)cc1)NCC(O)c1ccc(O)cc1 (stereo not drawn) [ONC0004132, ractopamine hydrochloride] | 105.5 |
| Cc1cccc(Oc2cnc(=O)[nH]c2)c1 [ONC0003488, tolimidone mlr 1023] | 59.01 |
| CCN(CCCc1ccccc1)CCCc1ccccc1 [ONC0000319, alverine citrate] | 77.24 |
| C[C@@H](C1=C(CCN(C)C)Cc2ccccc21)c1ccccn1 [ONC0001632, dimethindenes] | 75.79 |
| Cc1c(C)c2c(c(C)c1O)CC[C@@](C)(CCC[C@H](C)CCC[C@H](C)CCCC(C)C)O2 [ONC0002903, vitamine] | 81.8 |
| CC(C)(C)C(O)/C=C/c1ccc2c(c1)OCO2 (stereo not drawn) [ONC0005463, stiripentol] | 84.93 |
| CCc1cc(/C(C)=N/OCc2ccc(C3CCCCC3)c(C(F)(F)F)c2)ccc1CN1CC(C(=O)O)C1 [ONC0004388, baf312 siponimod] | 88.46 |
| CC[C@H](CC[C@@H](C)[C@H]1CC[C@H]2[C@@H]3CC=C4C[C@@H](O[C@@H]5O[C@H](CO)[C@@H](O)[C@H](O)[C@H]5O)CC[C@]4(C)[C@H]3CC[C@]12C)C(C)C [ONC0002029, daucosterol] | 64.15 |
| Cc1cc(NC(=O)Nc2ccc(F)c(F)c2)n(-c2ccccc2)n1 [ONC0001393, ml297] | 113 |
| C=C[C@@]1(C)CC(=O)[C@]2(O)[C@@]3(C)[C@@H](O)CCC(C)(C)[C@@H]3[C@H](OC(=O)CCN(C)C)[C@H](OC(C)=O)[C@@]2(C)O1 [ONC0002915, colforsindaproate] | 95.97 |
| Cc1cccc(NC(=O)c2ccc(C(F)(F)F)cc2C(=O)O)n1 [ONC0001038, af38469] | 84.75 |
| CCn1c(-c2nonc2N)nc2cnc(Oc3cccc(NC(=O)c4ccc(OCCN5CCOCC5)cc4)c3)cc21 [ONC0002474, gsk269962] | 46.2 |
| C[C@]12CC[C@@H]3c4ccc(O)cc4CC[C@H]3[C@@H]1[C@@H](O)[C@@H](O)[C@@H]2O [ONC0005540, estetrol] | 86.71 |

| SMILES | % viability [%] |
| --- | --- |
| NC(=O)NO [ONC0000587, hydroxyurea] | 64.11 |
| Clc1ccccc1C(c1ccccc1)(c1ccccc1)n1ccnc1 [Clotrimazole] | 2.944 |
| CO/N=C1\CN(c2nc3c(cc2F)c(=O)c(C(=O)O)cn3C2CC2)CC1CN (stereo not drawn) [ONC0004036, gemifloxacin mesylate] | 71.96 |
| CON(C)C(=O)[C@H](O)[C@H](Cc1ccccc1)NC(=O)c1cc2cc(Cl)ccc2[nH]1 [ONC0001518, cp316819] | 117.2 |
| O=C(O)CCCCCCCCC(=O)O [ONC0005473, disodium sebacate] | 90.67 |
| CCC(=O)NC[C@@H]1C[C@H]1c1cccc2c1CCO2 [ONC0002690, tasimelteon] | 69.8 |
| Clc1ccc(COC(Cn2ccnc2)c2ccc(Cl)cc2Cl)cc1 (stereo not drawn) [ONC0000666, econazole nitrate] | 102.4 |
| CC(C)c1c2cc(-c3ccnc(N[C@H]4CC[C@H](NC5CCOCC5)CC4)n3)ccc2nn1C [ONC0002761, ly2857785] | 125.7 |
| CC[C@@H](C(=O)O)C1CC[C@H](C)C([C@@H](C)[C@H](O)[C@H](C)C(=O)[C@H](CC)C2O[C@]3(C=C[C@@H](O)[C@]4(CC[C@@](C)(C5CC[C@](O)(CC)[C@H](C)O5)O4)O3)[C@H](C)C[C@@H]2C)O1 (stereo partly drawn) [ONC0004344, salinomycin procoxacin] | 144.3 |
| CN[C@@H]1C(OC2[C@H](O[C@H]3[C@H](O)[C@@H](O)[C@H](NC(=N)N)[C@@H](O)[C@@H]3NC(=N)N)OC(C)[C@]2(O)CO)OC(CO)C(O)C1O (stereo partly drawn) [ONC0000464, dihydrostreptomycin sesquisulfate 5mm10 aq dmso] | 68.06 |
| CCCC(C(=O)OCCN(CC)CC)(c1ccccc1)c1ccccc1 [ONC0004163, proadifen hydrochloride] | 65.11 |
| CCCN1CCC[C@@H]2Cc3n[nH]cc3C[C@H]21 [ONC0002699, quinpirol] | 68.38 |
| O=S(=O)(O)CCSSCCS(=O)(=O)O [ONC0004092, dimesna] | 119.9 |
| C=CC[N@@+]12CC[C@@]34c5ccccc5N5/C=C6/[C@H]7C[C@H]8[C@@]9(CC[N@@+]8(CC=C)C/C7=C/CO)c7ccccc7N(/C=C(/[C@@H](C[C@@H]31)/C(=C\CO)C2)[C@H]54)[C@@H]69 [ONC0002905, alcuronium] | 75.88 |
| Cc1cc(CC(C)CC(C)(C)C)n(O)c(=O)c1 (stereo not drawn) [ONC0002323, piroctone olamine] | 131.8 |
| CC(C)(C)c1ccc(S(=O)(=O)NCc2ccc(C(=O)Nc3cccnc3)cc2)cc1 [ONC0001855, stf31] | 80.22 |
| O=C(O)CNC(=O)C(CS)Cc1ccccc1 (stereo not drawn) [ONC0003501, thiorphan] | 71.51 |
| COC[C@@H](c1ccc(C(F)(F)F)cc1)N1CCN(C2(C)CCN(C(=O)c3c(C)ncnc3C)CC2)C[C@@H]1C [ONC0002026, vicriviroc maleate] | 74.17 |
| NC(C(=O)O)c1cc(O)ccc1Cl (stereo not drawn) [ONC0001508, chpg] | 113.3 |

Five compounds picked at random from the list so far:

| SMILES | % viability [%] |
| --- | --- |
| CCCCc1nn(-c2ccccc2C(F)(F)F)c(=O)n1Cc1ccc(-c2ccccc2S(=O)(=O)NC(=O)c2sccc2C)cc1 [ONC0003621, l161982] | 69.37 |
| COc1cc2c(cc1OC)CN(CCc1ccc(NC(=O)c3cccc4c(=O)c5cccc(OC)c5[nH]c34)cc1)CC2 [ONC0001070, elacridar] | 58.72 |
| O=S(=O)(O)CCSSCCS(=O)(=O)O [ONC0004092, dimesna] | 119.9 |
| O=C(CN1CCN(Cc2ccc3c(c2)OCO3)CC1)N1c2ccccc2Sc2ccccc21 [ONC0003446, fenoverine] | 80.33 |
| Cc1cccc(Oc2cnc(=O)[nH]c2)c1 [ONC0003488, tolimidone mlr 1023] | 59.01 |
